Results deposited as PubChem BioAssay AID504791 (Drosophila RNAi Screening Center, 2011).
The screen tested about 23,000 reagents; shown is an unselected part of those with a known target gene and a result. Over the whole deposit, 199 (0.86%) got an active call. 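Plate-scaled ratios behind the calls are not deposited; printed light signals are raw; many rows marked increased or decreased are still called inactive.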 A number with no mark means an inactive call.

- Screen: 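Genes of the fly required for silencing by miRNA, siRNA or endo-siRNA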 (primary screen)
- Cells: Drosophila S2-derived reporter cells
- Knock-down reagent: long dsRNA against Drosophila genes, about 150-250 ng dsRNA per well (siRNA assay); about 80-120 ng (miRNA assay)
- Duration: about 5 days (siRNA assay); about 4 days (miRNA assay)
- Challenge: copper sulfate induction of reporters: 25 µM (siRNA assay); 200 mM stated (miRNA assay), 1-2 days before reading
- Measured: 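Dual luciferase assay: Renilla to firefly signal ratio in each well, scaled to the mean ratio of its plate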
- Reading the numbers: siRNA reporter hit score: higher = 3 marks a strong hit with raised ratio; -3 a strong hit with lowered ratio
- Call rule: 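First-pass picks had plate-scaled ratios over 1.5 for the siRNA assay, over 1.6 for the miRNA assay, or under 0.6; two distinct dsRNAs had to score alike on retest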

Moca-cyp [DRSC15364] — stable assay Renilla, run 1 (luminescence): 7786; stable assay firefly, run 1 (luminescence): 4.77e5
CG1503 [DRSC20512] — siRNA reporter hit score: 3; stable siRNA reporter change: reporter ratio raised past the hit cutoff; stable assay Renilla, run 1 (luminescence): 11957; stable assay firefly, run 1 (luminescence): 3.86e5
CG14654 (retired record) [DRSC12240] — stable assay Renilla, run 1 (luminescence): 6624; stable assay firefly, run 1 (luminescence): 4.46e5
CG13127 [DRSC02223] — stable assay Renilla, run 1 (luminescence): 7751; stable assay firefly, run 1 (luminescence): 4.20e5
CG7781 [DRSC03068] — stable assay Renilla, run 1 (luminescence): 6768; stable assay firefly, run 1 (luminescence): 4.47e5
vkg [DRSC03632] — stable assay Renilla, run 1 (luminescence): 7824; stable assay firefly, run 1 (luminescence): 4.05e5
tbc [DRSC20540] — stable assay Renilla, run 1 (luminescence): 5567; stable assay firefly, run 1 (luminescence): 3.20e5
tbc [DRSC23084] — stable assay Renilla, run 1 (luminescence): 5034; stable assay firefly, run 1 (luminescence): 4.29e5
CG8046 [DRSC07059] — stable assay Renilla, run 1 (luminescence): 8247; stable assay firefly, run 1 (luminescence): 5.19e5
CG14074 [DRSC10079] — stable assay Renilla, run 1 (luminescence): 8521; stable assay firefly, run 1 (luminescence): 4.60e5
CG30046 [DRSC06691] — stable assay Renilla, run 1 (luminescence): 5990; stable assay firefly, run 1 (luminescence): 3.50e5
lncRNA:CR32368 [DRSC08899] — stable assay Renilla, run 1 (luminescence): 3651; stable assay firefly, run 1 (luminescence): 3.59e5
